Measurements from PubChem BioAssay AID493014 (National Center for Advancing Translational Sciences (NCATS), 2011).
This is one part of the list. Shown are side measurements of this screen, not its main read-out; they come without a call. Compounds called inactive in the main read-out are mostly missing here. Potencies come from curve fits of mixed quality, noted in brackets.

Assay: qHTS Assay to Find Inhibitors of Chronic Active B-Cell Receptor Signaling
Conditions: ABC-DLBCL IkBa-CBG/CBR reporter, luminescence ratio (green luciferase fused to IkBa over red control in TMD8 lymphoma cells), 4 h
In short: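 TMD8 human ABC-DLBCL cells with doxycycline-inducible IκBα–green luciferase fusion and unfused red luciferase, in 0.5% FBS medium; compounds up to 46 uM, 4 h at 37C. Green/red luminescence ratio, filter-overlap corrected, fitted to concentration-response curves.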

[1] = measured here: CBR red luminescence, cell number

SMILES	AC50 [1]	AC50 (measured here: IkBa-CBG green luminescence)
CC(CCc1ccco1)NC(=O)c1cc2c(-c3ccccc3F)nn(C)c2s1 (stereo unspecified)	7.31 µM [falling, partial curve, poor fit]	–
CCC12CN(S(=O)(=O)c3ccc(C)cc3)CC(CC)(CN(S(=O)(=O)c3ccc(C)cc3)C1)C2=O	0.517 µM [falling, full curve, poor fit]	–
CCOc1ccccc1N1CCN(S(=O)(=O)c2ccc3c4c(cccc24)C(=O)N3)CC1	23.1 µM [falling, single point]	–
O=C(NCc1ccccc1)c1cnc(-c2ccccn2)nc1C(F)(F)F	29.1 µM [rising, single point]	–
Cc1ccc(Nc2nc(-c3ccc(F)cc3)cs2)nc1	0.316 µM [falling, full curve, poor fit]	–
CCCCN(C(=O)CSc1nnc(-c2ccccc2)o1)c1c(N)n(CCC)c(=O)[nH]c1=O	2.91 µM [rising, partial curve]	–
O=c1[nH]cnc2c1C1(CCCC1)Cc1ccccc1-2	14.6 µM [falling, single point]	–
O=C1COCCOCCOCCOCC(=O)NCCN1	14.1 µM [rising, single point]	–
Cc1ccc(-c2n[nH]c3c2C(c2ccccc2)N(c2ccc(C(=O)O)cc2)C3=O)cc1 (stereo unspecified)	20 µM [falling, single point]	–
CCOc1ccc2nc(N3CCC(C(=O)N4CCN(C5CCCCC5)CC4)CC3)sc2c1	23.1 µM [falling, partial curve, poor fit]	–
COc1cccc(COC(=O)C2CCN(S(=O)(=O)c3cccs3)CC2)c1OC	11.6 µM [rising, partial curve, poor fit]	–
O=C(NC(=S)NNC(=O)c1ccccc1O)c1cccc([N+](=O)[O-])c1	5.01 µM [falling, partial curve]	–
NS(=O)(=O)c1ccc(NC(=O)CSc2nnc(COc3ccccc3Cl)n2C2CC2)cc1	29.1 µM [falling, single point]	–
Cc1ccc(C(=O)OCC(=O)Nc2sc3c(c2C#N)CCCC3)cc1NC(=O)c1ccco1	2.91 µM [rising, single point]	–
O=Cc1c(NCCN2CCCC2)c2ccccc2[nH]c1=O	12.6 µM [falling, single point]	–
Cc1ccc2c(c1)N(CC(=O)O)C(=O)CO2	35.5 µM [rising, partial curve, poor fit]	–
O=C(NCCSc1ccccc1)c1cncc(Br)c1	13 µM [falling, partial curve, poor fit]	–
COc1ccc(C)cc1NC(=O)c1ccccc1N(C)S(=O)(=O)c1ccccc1	4.47 µM [falling, partial curve]	–
COc1ccc(-c2sc3ccc(N4CCOCC4)cc3c2-c2ccc(O)cc2)cc1	11.6 µM [falling, partial curve, poor fit]	–
CCn1c(SCC(=O)Nc2nc(-c3ccccc3)cs2)nnc1-c1ccccc1	35.5 µM [falling, single point]	–

Full records as entered above. Order of values: AC50 [1]	AC50 (measured here: IkBa-CBG green luminescence)
NS(=O)(=O)c1ccc(NC(=O)CSc2nnc(COc3ccccc3Cl)n2C2CC2)cc1 as listed: 29.1 µM [falling, single point]	–
CCOc1ccc2nc(N3CCC(C(=O)N4CCN(C5CCCCC5)CC4)CC3)sc2c1 as listed: 23.1 µM [falling, partial curve, poor fit]	–

Later entries

SMILES	AC50 [1]	AC50 (measured here: IkBa-CBG green luminescence)
C=CCn1c(=O)c2c(nc3n2CCCN3CCc2ccccc2)n(C)c1=O	5.62 µM [falling, partial curve, poor fit]	–
CC1CCCCN1Cc1nc2c(c(=O)n(C)c(=O)n2C)n1CCc1ccccc1 (stereo unspecified)	11.6 µM [rising, single point]	–
COc1ccc(/C=N/Nc2nc(Nc3ccccc3)nc(N3CCCC3)n2)cc1[N+](=O)[O-]	2.82 µM [falling, full curve, poor fit]	–
N#C/C(=N\Nc1ccc(S(=O)(=O)N2CCc3ccccc32)cc1)C(N)=S	35.5 µM [falling, single point]	–
Cc1ccccc1OCC(=O)NNC(=O)c1ccc(-c2ccccc2)cc1	20.6 µM [rising, single point]	–
Cc1ccc2nc(N(Cc3cccnc3)C(=O)CCc3ccccc3)sc2c1	1.41 µM [rising, full curve, poor fit]	–
Clc1c(Cl)c(Cl)c2n[nH]nc2c1Cl	20 µM [falling, partial curve, poor fit]	–
O=S1(=O)N=C(Nc2nc3c(s2)CCCC3)c2ccccc21	20.6 µM [falling, partial curve]	32.6 µM [falling, partial curve, poor fit]
CC(=O)Nc1cccc(C(=O)/C=C/c2ccc(N(C)C)cc2)c1	10.3 µM [falling, partial curve]	–
CC(=O)Nc1ccc2nc(SCC(=O)N3CCOCC3)sc2c1	35.5 µM [falling, single point]	–
CCc1nc2ccccc2c(C(=O)OCc2nnc(-c3ccccc3)o2)c1C	29.1 µM [falling, single point]	–
Cc1ccc(NC(=O)c2csnn2)c(C)c1	16.4 µM [rising, partial curve, poor fit]	–
COc1ccc(S(=O)(=O)n2ccc(C(C)Oc3ccc(-c4ccccc4)c(F)c3)n2)cc1 (stereo unspecified)	4.11 µM [falling, single point]	–
CC1CC(=O)N(CC(=O)Nc2ccc(F)cc2)c2ccccc2S1(=O)=O (stereo unspecified)	20 µM [falling, partial curve]	–
COc1ccc(-c2ccc(=O)n(CC(=O)Nc3ccc4c(c3)OCCO4)n2)cc1	22.4 µM [falling, single point]	–
Cc1nc2ccc(C(=O)Nc3ccccc3Cl)cc2s1	14.1 µM [falling, partial curve, poor fit]	–
COc1ccc(NS(=O)(=O)c2cc(NC(=O)c3ccc(=O)[nH]c3)ccc2N2CCCC2)cc1	12.6 µM [rising, partial curve, poor fit]	–
O=C(Nc1ccc(Cl)c(S(=O)(=O)N2CCOCC2)c1)c1ccc2c(c1)OCO2	29.1 µM [falling, single point]	–
COc1ccc(C)cc1NC(=O)CN(C)S(=O)(=O)c1cc(C)ccc1OC	6.51 µM [rising, partial curve]	–
CCOC(=O)c1sc(NC(=O)CSc2nnc(Cc3ccccc3)o2)c(C#N)c1C	6.51 µM [rising, partial curve, poor fit]	–
